# Experimental data reported in the supplement of paper PMC10849652.
# By UniProt entry, the sequences of proteins in these tests, tags left out. Where a name states a change or a piece, a line headed by the entry shows the natural chain unless it says otherwise.
# UniProt Q8WUD1: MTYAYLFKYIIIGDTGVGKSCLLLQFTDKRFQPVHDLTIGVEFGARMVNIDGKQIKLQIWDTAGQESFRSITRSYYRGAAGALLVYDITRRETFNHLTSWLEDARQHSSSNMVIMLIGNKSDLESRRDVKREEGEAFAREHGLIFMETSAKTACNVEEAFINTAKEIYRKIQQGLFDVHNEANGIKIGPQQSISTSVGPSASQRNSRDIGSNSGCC
# UniProt Q96PU8: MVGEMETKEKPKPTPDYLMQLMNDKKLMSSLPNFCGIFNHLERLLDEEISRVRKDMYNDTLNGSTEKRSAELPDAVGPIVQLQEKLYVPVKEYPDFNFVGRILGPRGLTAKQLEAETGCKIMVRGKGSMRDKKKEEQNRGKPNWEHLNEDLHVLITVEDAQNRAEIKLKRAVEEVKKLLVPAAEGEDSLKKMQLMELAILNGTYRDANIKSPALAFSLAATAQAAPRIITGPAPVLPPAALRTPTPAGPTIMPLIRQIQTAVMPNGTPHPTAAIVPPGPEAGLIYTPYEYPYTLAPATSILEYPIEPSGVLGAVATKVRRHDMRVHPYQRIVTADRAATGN
# UniProt Q99638: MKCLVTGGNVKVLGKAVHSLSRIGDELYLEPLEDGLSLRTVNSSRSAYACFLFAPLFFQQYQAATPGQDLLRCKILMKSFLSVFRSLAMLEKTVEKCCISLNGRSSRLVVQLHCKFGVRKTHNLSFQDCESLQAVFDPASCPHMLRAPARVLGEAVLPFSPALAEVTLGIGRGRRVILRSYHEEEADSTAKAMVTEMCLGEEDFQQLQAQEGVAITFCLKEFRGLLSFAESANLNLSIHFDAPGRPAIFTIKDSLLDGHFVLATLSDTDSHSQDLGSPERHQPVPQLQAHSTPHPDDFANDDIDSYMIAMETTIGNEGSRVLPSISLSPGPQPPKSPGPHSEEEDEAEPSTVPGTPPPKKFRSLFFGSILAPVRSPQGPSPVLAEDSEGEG
# UniProt P61026: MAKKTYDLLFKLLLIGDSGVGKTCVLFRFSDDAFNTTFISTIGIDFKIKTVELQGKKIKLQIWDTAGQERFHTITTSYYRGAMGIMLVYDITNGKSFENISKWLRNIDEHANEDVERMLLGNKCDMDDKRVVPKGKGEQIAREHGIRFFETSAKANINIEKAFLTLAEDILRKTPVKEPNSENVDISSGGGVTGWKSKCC
# UniProt Q9UJ41, whole entry, looked up: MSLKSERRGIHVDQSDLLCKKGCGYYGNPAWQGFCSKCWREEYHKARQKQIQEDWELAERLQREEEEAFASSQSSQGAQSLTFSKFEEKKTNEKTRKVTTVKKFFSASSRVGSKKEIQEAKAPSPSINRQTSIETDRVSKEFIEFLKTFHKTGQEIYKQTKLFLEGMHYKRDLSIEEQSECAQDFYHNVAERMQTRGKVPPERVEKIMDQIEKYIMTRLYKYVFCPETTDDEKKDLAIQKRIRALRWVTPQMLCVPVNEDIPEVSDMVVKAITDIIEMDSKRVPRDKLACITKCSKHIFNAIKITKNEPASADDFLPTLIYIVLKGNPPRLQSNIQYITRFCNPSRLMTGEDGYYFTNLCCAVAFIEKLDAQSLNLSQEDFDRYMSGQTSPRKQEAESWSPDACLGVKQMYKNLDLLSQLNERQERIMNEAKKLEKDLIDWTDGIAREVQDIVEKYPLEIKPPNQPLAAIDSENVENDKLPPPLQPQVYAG
# UniProt P51151: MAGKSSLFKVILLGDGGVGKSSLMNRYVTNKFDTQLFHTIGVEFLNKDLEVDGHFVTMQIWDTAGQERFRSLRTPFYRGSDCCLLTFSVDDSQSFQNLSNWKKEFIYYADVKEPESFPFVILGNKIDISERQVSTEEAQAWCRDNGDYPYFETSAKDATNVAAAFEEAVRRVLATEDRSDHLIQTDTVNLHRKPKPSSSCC
# UniProt P51149, whole entry, looked up: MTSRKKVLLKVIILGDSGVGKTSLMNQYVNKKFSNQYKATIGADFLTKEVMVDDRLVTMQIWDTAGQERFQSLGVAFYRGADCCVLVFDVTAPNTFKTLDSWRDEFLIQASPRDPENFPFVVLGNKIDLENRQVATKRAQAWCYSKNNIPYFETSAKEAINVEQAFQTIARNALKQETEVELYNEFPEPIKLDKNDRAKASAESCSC
# UniProt P47224: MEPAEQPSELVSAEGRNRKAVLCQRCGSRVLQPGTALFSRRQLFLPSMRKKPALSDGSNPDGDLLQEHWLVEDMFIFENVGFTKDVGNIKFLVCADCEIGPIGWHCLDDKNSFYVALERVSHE
# UniProt Q9NS91, whole entry, looked up: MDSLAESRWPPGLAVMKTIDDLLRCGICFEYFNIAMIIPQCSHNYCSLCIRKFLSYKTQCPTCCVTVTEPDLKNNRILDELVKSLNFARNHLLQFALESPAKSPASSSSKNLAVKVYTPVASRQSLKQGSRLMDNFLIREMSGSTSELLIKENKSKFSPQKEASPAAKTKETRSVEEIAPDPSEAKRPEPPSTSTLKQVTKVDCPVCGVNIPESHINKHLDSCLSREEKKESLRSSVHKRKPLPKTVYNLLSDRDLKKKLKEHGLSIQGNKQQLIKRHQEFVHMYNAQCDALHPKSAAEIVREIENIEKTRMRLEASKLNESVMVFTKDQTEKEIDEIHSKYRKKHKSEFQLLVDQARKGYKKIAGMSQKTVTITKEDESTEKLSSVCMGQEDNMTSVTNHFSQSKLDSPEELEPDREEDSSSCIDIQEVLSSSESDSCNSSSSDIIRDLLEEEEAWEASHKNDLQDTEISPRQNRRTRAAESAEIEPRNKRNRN
# UniProt P61106, whole entry, looked up: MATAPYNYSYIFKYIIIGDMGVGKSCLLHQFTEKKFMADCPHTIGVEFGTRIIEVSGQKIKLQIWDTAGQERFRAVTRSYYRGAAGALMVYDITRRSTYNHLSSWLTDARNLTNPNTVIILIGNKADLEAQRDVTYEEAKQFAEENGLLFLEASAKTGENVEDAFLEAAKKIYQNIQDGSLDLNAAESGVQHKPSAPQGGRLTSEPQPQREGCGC
# UniProt O43502: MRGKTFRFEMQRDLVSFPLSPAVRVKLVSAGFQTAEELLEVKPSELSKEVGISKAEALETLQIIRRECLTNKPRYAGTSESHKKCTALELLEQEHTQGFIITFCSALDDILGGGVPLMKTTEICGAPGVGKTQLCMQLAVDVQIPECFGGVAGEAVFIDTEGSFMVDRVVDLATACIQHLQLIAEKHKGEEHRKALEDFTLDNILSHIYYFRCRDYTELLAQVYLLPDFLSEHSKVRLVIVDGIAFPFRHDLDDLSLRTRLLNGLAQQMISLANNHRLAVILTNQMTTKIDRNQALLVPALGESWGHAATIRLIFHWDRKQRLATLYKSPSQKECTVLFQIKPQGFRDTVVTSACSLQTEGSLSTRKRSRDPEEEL
# UniProt Q86X10: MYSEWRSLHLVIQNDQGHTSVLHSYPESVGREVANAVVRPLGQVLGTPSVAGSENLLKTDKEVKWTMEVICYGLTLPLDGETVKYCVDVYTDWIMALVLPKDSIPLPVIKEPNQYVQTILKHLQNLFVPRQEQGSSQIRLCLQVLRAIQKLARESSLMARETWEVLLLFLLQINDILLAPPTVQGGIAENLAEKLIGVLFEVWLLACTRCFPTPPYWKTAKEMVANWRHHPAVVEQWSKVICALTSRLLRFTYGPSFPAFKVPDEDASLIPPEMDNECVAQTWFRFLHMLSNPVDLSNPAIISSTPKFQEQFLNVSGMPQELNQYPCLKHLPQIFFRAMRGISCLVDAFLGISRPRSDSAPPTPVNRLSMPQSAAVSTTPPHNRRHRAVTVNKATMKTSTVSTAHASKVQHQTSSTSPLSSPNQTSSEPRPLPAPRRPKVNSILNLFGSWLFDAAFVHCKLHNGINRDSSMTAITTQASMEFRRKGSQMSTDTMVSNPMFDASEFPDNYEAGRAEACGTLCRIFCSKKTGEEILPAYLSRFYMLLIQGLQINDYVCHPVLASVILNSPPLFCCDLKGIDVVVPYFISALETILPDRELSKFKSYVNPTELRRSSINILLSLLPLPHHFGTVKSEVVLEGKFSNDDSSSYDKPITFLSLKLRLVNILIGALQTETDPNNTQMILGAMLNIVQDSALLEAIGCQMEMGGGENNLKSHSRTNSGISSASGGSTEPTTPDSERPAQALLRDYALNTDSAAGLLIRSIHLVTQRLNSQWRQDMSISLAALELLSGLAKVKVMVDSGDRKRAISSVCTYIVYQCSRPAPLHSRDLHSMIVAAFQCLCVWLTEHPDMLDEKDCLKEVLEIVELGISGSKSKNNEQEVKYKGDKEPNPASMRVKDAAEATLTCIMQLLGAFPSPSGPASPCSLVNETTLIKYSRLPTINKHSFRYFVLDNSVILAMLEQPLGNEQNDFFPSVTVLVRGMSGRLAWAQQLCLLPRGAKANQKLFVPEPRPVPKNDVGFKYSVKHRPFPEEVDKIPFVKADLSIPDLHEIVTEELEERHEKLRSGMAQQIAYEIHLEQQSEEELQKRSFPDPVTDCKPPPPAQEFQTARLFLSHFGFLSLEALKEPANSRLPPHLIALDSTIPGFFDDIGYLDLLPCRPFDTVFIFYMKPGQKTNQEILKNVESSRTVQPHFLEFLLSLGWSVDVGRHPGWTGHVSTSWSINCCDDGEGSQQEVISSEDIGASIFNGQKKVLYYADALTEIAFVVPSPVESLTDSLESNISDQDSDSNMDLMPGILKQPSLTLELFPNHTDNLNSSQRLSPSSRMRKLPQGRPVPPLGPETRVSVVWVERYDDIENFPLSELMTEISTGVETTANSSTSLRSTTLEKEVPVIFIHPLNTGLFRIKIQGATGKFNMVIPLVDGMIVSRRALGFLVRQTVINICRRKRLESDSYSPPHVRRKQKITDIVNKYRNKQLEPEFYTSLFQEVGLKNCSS
# UniProt P47897: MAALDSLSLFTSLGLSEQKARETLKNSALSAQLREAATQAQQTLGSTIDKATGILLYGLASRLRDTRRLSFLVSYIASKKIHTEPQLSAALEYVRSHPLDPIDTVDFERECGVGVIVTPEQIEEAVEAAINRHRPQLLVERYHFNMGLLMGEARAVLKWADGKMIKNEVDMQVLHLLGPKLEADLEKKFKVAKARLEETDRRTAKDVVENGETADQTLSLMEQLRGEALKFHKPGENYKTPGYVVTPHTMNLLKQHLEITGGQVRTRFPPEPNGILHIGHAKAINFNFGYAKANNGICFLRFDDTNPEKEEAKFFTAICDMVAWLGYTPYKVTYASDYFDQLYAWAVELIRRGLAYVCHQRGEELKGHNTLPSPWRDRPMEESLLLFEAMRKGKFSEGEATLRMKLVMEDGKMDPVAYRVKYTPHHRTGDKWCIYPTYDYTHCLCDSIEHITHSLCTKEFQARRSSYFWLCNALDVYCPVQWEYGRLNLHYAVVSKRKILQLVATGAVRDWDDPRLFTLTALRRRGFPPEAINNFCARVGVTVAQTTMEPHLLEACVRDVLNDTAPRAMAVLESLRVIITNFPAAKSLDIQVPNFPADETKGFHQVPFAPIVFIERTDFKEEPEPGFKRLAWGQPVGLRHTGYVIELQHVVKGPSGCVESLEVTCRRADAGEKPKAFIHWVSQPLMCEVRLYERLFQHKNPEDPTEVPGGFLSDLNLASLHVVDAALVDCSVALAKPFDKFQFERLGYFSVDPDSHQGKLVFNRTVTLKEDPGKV
# UniProt Q9P0K7: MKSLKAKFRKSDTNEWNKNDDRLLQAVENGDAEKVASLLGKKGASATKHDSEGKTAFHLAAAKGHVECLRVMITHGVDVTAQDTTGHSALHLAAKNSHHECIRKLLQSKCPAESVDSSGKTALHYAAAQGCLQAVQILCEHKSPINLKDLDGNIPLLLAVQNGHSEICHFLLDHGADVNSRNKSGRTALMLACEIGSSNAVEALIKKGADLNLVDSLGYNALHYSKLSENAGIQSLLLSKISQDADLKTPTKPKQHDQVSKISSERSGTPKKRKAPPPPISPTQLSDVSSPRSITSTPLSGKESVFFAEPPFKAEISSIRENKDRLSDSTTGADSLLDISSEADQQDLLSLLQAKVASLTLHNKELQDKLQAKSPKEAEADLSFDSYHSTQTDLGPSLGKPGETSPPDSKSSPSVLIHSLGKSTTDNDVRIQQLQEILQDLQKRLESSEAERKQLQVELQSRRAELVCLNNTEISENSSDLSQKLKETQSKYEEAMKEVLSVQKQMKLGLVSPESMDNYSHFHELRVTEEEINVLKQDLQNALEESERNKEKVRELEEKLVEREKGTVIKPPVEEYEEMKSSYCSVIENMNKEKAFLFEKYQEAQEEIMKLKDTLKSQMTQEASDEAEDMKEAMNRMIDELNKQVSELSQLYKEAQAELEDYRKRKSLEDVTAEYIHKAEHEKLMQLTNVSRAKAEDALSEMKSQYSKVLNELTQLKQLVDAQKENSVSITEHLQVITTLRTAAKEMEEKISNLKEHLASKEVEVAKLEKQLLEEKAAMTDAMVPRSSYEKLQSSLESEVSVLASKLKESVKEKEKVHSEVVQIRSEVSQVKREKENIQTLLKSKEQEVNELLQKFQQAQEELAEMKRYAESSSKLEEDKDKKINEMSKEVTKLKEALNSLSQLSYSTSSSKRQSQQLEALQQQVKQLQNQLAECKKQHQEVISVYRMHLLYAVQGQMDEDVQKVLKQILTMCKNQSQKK
# This is one part of the list.
# Compound: c1ccc([C@@H]2C[C@H]2NC2CCNCC2)cc1
# Experiment: log2 fold change, soluble protein after heating vs DMSO (PISA); higher = thermal stabilisation; K562 lysate, 10 uM; active = over 0.2 and 3.5 SD of the protein, either way, in both replicates (recomputed)
# Procedure, shortened: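 Pellets of K562 cells were dounce-homogenised in PBS pH 7.4 with 1 mM MgCl2, and the crude extract was held at 1 mg/mL protein for a 30 min treatment with 10 μM compound. Aliquots were heated for 3 min over 48°C-58°C and pooled before NP-40 was added to 0.5% at 4°C. The supernatant from 21,000xg for 90 min was quantified by TMTpro 16plex LC-MS/MS with channel sums equalised. Values are reported from duplicates as log-two fold change in thermal stability relative to solvent controls.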
row,Target,log2 fold change
1,RABEPK (UniProt Q7Z6M1),inactive: -0.071
2,RAC1 isoform 2 (UniProt P63000),inactive: 0.15
3,RANBP9 (UniProt Q96S59),inactive: -0.021
4,RABGGTA (UniProt Q92696),inactive: -0.002
5,RAB2B (UniProt Q8WUD1),inactive: -0.013
6,QKI (UniProt Q96PU8),inactive: -0.034
7,RAB30 (UniProt Q15771),inactive: -0.021
8,RAD9A (UniProt Q99638),inactive: 0.043
9,RAB10 (UniProt P61026),inactive: 0.036
10,RABGGTB (UniProt P53611),inactive: -0.017
11,RABGEF1 isoform 3 (UniProt Q9UJ41),inactive: -0.002
12,RABGAP1L isoform 5 (UniProt Q5R372),inactive: -0.007
13,RAE1 (UniProt P78406),inactive: -0.022
14,RALGAPA1 isoform 6 (UniProt Q6GYQ0),inactive: -0.178
15,RAB9A (UniProt P51151),inactive: 0.065
16,RAD23B (UniProt P54727),inactive: -0.028
17,PYGL (UniProt P06737),inactive: -0.011

row,Target,log2 fold change
1,RAP2C (UniProt Q9Y3L5),inactive: -0.009
2,PYCARD (UniProt Q9ULZ3),inactive: -0.01
3,RAB7A (UniProt P51149),inactive: -0.01
4,QPRT (UniProt Q15274),inactive: -0.071
5,RAC2 (UniProt P15153),inactive: 0.028
6,RABIF (UniProt P47224),inactive: -0.03
7,RAP1B (UniProt F5GZG1),inactive: -0.282
8,RAD18 (UniProt Q9NS91),inactive: -0.021
9,RAB14 (UniProt P61106),inactive: -0.037
10,RALBP1 (UniProt Q15311),inactive: -0.023
11,RAD51C (UniProt O43502),inactive: -0.004
12,RACGAP1 (UniProt Q9H0H5),inactive: -0.015
13,RALGAPB (UniProt Q86X10),inactive: 0.006
14,RAD51 (UniProt Q06609),inactive: -0.042
15,QARS (UniProt P47897),inactive: 0.058
16,RAI14 isoform 2 (UniProt Q9P0K7),inactive: -0.033
17,RAN (UniProt P62826),inactive: 0.039

# Laid out differently: results already given
row	Target	log2 fold change
10	RABGGTB (UniProt P53611)	inactive: -0.017
11	RABGEF1 isoform 3 (UniProt Q9UJ41)	inactive: -0.002
12	RABGAP1L isoform 5 (UniProt Q5R372)	inactive: -0.007
